# Out of some 330,000 compounds screened, about 7,700 (2.3%) were called active. Inconclusive means that the source gave no clear call. Such entries were picked first, then a sample of the others. The call rests on the fitted dose curve; in most records, active means well fitted inhibition curve with a large enough effect; inconclusive means small, poorly fitted or top-dose-only effect, or effect the other way; inactive means flat fitted curve, though single readings scatter. Potencies of inconclusive entries are doubtful fits and often do not repeat.
# Assay: qHTS screen for small molecules that inhibit ELG1-dependent DNA repair in human embryonic kidney (HEK293T) cells expressing luciferase-tagged ELG1; further: nearly all actives have a fitted effect of over 55% in size
# Details: HEK293T ELG1-luciferase reporter, luminescence, 16 h, DNA damage induced by 5-fluorouridine; activity change, negative = inhibition: at 46.1 µM (top of the series)
# Method in brief: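 Overnight (16 hr) co-exposure of 2,000 cells/well to 5-fluorouridine and compound at 37 °C preceded detection. Luciferase was quantified via ONE-Glo luminescence; loss of signal denotes inhibition.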
# On the % scale 0 is the no-effect control and ±100 the full control effect; potency means the concentration at half of the fitted maximal effect.
SMILES,Potency,"activity change, negative = inhibition"
CCCN(CCC)c1nc(C#N)nc(N(CCC)CCC)n1,inactive,
O=C(c1ccc2c(c1)OCO2)N1CCN(c2cccc(C(F)(F)F)c2)CC1,"inconclusive: 20.6 µM [inhibitor, single point]",
Cc1ccccc1NC(=O)C[n+]1cc(-c2ccccc2)n2c1CCC2,inactive,
CCCCOc1ccc(CN=C(N)N)cc1Cl,"inconclusive: 9.2 µM [inhibitor, partial curve]",
O=C(NCc1cccs1)C1CCCN(C(=O)Nc2ccc(F)cc2)C1 (configuration not stated),"inconclusive: 11.6 µM [inhibitor, partial curve]",
Clc1ccc(CNc2ncccn2)cc1,"inconclusive: 11.6 µM [activator, partial curve]",
CC(NC(=O)c1ccccc1NC(=O)CN1CCc2ccccc2C1)c1ccccc1 (configuration not stated),active: 13 µM,
COc1ccccc1NC(=O)c1ccc(-n2ccnc2)c([N+](=O)[O-])c1,"inconclusive: 29.1 µM [inhibitor, single point]",
CC(=O)C(C)Oc1cc(C)cc2oc(=O)c(C)c(C)c12 (configuration not stated),"inconclusive: 13 µM [activator, partial curve]",
Cc1ccc(C)c(CNc2ccc(S(=O)(=O)N3CCCCC3)cc2)c1,"inconclusive: 32.6 µM [activator, single point]",
CC1Cc2ccccc2N1c1ncnc2c1nnn2Cc1ccccc1 (configuration not stated),"inconclusive: 29.1 µM [inhibitor, single point]",
CCOC(=O)c1cnn2c(C(F)(F)F)cc(-c3cn(C)nc3C)nc12,"inconclusive: 8.2 µM [inhibitor, partial curve]",
CC(=O)OCC(=O)Nc1ccc(N=Nc2ccccc2)cc1,"inconclusive: 7.31 µM [activator, partial curve]",
COc1ccc(-n2c(Cc3cccn3C)nnc2SCC(=O)Nc2ccc3c(c2)OCO3)cc1,"inconclusive: 16.4 µM [inhibitor, partial curve, poor fit]",
COc1cccc(/C=N/Nc2nc3ccccc3n3cnnc23)c1,"inconclusive: 4.11 µM [inhibitor, single point]",
Cc1nc(SCC(=O)OCc2ccccc2)c2c(=O)n(C)c(=O)n(C)c2n1,"inconclusive: 18.4 µM [inhibitor, partial curve, poor fit]",
Cc1cc(NC(=O)c2cc3n(n2)C(C(F)(F)F)CC(c2ccc(Cl)c(Cl)c2)N3)no1 (configuration not stated),inactive,
Cn1nc(C(C)(C)C)c([N+](=O)[O-])c1C(N)=O,"inconclusive: 25.9 µM [activator, single point]",
COc1ccc(S(=O)(=O)N2CCN(CC(=O)NC3CC3)CC2)cc1,inactive,
CCOc1ccc(CCN2C(=O)C(=O)N([C@H](CCCN(C)Cc3ccccc3)CNCc3ccccc3)C[C@@H]2C(C)C)cc1,inactive,
CN(CCCNC(=O)CSc1cc(=O)n(C)c2cc(Cl)ccc12)Cc1ccccc1,"inconclusive: 16.4 µM [activator, single point]",
Cc1ccc(NC2=C/C(=N/S(=O)(=O)c3cccs3)c3ccccc3C2=O)cc1C,"inconclusive: 3.66 µM [activator, full curve, poor fit]",
Cc1ccc(CC(=O)Nc2cc(C)ccn2)cc1,inactive,

SMILES,Potency,"activity change, negative = inhibition"
O=C(NC1CCCCC1)C1CCCN(S(=O)(=O)c2ccc(Br)s2)C1 (configuration not stated),"inconclusive: 29.1 µM [inhibitor, single point]",
O=C(COc1coc(CN2CCc3ccccc32)cc1=O)Nc1cccc(F)c1,inactive,
CCn1c(O)c(/C=C2\C=NN=C2c2ccccc2)sc1=S,inactive,
N#Cc1ccc(C(=O)NCC2CCCCC2)cc1,inactive,
O=[N+]([O-])c1cc(C(F)(F)F)ccc1NCCOc1ccccc1,"inconclusive: 20.6 µM [activator, partial curve]",
O=[N+]([O-])c1ccc(Oc2cnc3ccccc3n2)cc1,"inconclusive: 4.11 µM [inhibitor, full curve]",
COc1ccc(Cl)cc1NC(=O)c1cnc2sccn2c1=O,"inconclusive: 18.4 µM [activator, single point]",
O=S(=O)(Cc1ccccc1)c1ccccc1-c1nnc(-c2ccccc2)o1,"inconclusive: 18.4 µM [inhibitor, single point]",
Cc1noc(C)c1COc1ccc(C(=O)OCC(=O)N2CC3(C)CC2CC(C)(C)C3)cc1 (configuration not stated),"inconclusive: 25.9 µM [inhibitor, partial curve, poor fit]",
CCc1cc2c3c(c1)C1(C(=O)N3C(C)(C)C=C2C)C(C#N)=C(N)Oc2[nH]c(=O)[nH]c(=O)c21 (configuration not stated),"inconclusive: 29.1 µM [inhibitor, single point]",
Cc1ccccc1OCc1nc(-c2ccc(NC(=O)c3ccc4c(c3)OCO4)cc2)no1,"inconclusive: 20.6 µM [activator, single point]",
CCc1nnc(NC(=O)CSc2nc(-c3ccccc3)c(-c3ccccc3)o2)s1,inactive,
Cc1ccc(S(=O)(=O)N(C)c2ccccc2C(=O)NC2CCCC2)cc1,inactive,
Cc1ccc(Cl)cc1S(=O)(=O)N1CCC(C(=O)NC2CCN(Cc3ccccc3)CC2)CC1,active: 5.17 µM,
Cc1cccc(N(C(=O)Cn2nnc3ccccc32)C(C(=O)NC(C)(C)C)c2ccsc2)c1 (configuration not stated),"inconclusive: 6.51 µM [activator, partial curve]",
CCc1ccccc1NC(=O)CNC(=O)c1cccc(S(=O)(=O)N2CCN(Cc3ccccc3)CC2)c1,"inconclusive: 16.4 µM [inhibitor, single point]",
O=C(COC(=O)C1CCCN1C(=O)C12CC3CC(CC(C3)C1)C2)c1ccc(Br)cc1 (configuration not stated),inactive,
COc1ccc(C)cc1-n1nnnc1SCc1cc(=O)n2cc(C)ccc2n1,active: 17.8 µM,
CN(C)c1ccc(/C=C(\C#N)C(=O)NCc2ccco2)cc1,"inconclusive: 29.1 µM [activator, single point]",
CCCN1C2=C(C(=O)CC(C)(C)C2)C(c2ccc(F)cc2)C2=C1c1ccccc1C2=O (configuration not stated),"inconclusive: 20.6 µM [inhibitor, partial curve]",
Cc1ccc(NC(=S)NC(=O)c2c(-c3ccccc3Cl)noc2C)cc1,inactive,
COc1ccc(/C=C/C=C2\NC(=S)NC2=O)cc1,"inconclusive: 13 µM [activator, partial curve, poor fit]",
Cc1cc(C(=O)OCC(=O)N2CCc3ccccc32)c(C)o1,"inconclusive: 8.2 µM [activator, partial curve]",

# Arranged by molar mass (smallest number first): some entries from above.
SMILES,Potency,"activity change, negative = inhibition"
CC(=O)OCC(=O)Nc1ccc(N=Nc2ccccc2)cc1,"inconclusive: 7.31 µM [activator, partial curve]",
Cc1ccc(C)c(CNc2ccc(S(=O)(=O)N3CCCCC3)cc2)c1,"inconclusive: 32.6 µM [activator, single point]",
O=C(NCc1cccs1)C1CCCN(C(=O)Nc2ccc(F)cc2)C1 (configuration not stated),"inconclusive: 11.6 µM [inhibitor, partial curve]",
Cc1ccc(S(=O)(=O)N(C)c2ccccc2C(=O)NC2CCCC2)cc1,inactive,

# (list continues)

SMILES,Potency,"activity change, negative = inhibition"
COc1ccc(CN2CN(S(=O)(=O)c3cccs3)c3nc4ccccc4nc32)cc1,"inconclusive: 20.6 µM [activator, single point]",
CCn1c(SCc2cccc(C(=O)O)c2)nnc1-c1ccc(Cl)cc1,"inconclusive: 14.6 µM [activator, partial curve, poor fit]",
CCCNC(=O)c1cc(S(=O)(=O)N2CCc3ccccc32)ccc1F,"inconclusive: 8.2 µM [inhibitor, partial curve]",
Cc1ccsc1/C=N\NC(=O)c1cc(C(C)(C)C)[nH]n1,"inconclusive: 18.3 µM [activator, partial curve]",
COc1ccc(/C=C2/SC(=O)N(CCNC(=O)C3COc4ccccc4O3)C2=O)cc1 (configuration not stated),"inconclusive: 20.6 µM [activator, single point]",
COc1ccc(C(=O)Nc2ccc(C)cc2C(=O)c2ccccc2)cc1,"inconclusive: 20.6 µM [inhibitor, single point]",
COC(=O)c1ccn(-c2nc(-c3ccco3)cc(C(F)(F)F)n2)n1,"inconclusive: 18.4 µM [inhibitor, partial curve]",
COc1ccc(OC)c(Nc2nc(-c3c(C)nc4ncccn34)cs2)c1,"inconclusive: 3.66 µM [activator, full curve]",
CCCCCc1cc(=O)oc2c(C(CCN3CCCC(C)C3)c3ccc(N(C)C)cc3)c(OC)cc(OC)c12 (configuration not stated),"inconclusive: 23.1 µM [inhibitor, single point]",
CN(Cc1ccco1)C(=O)Cn1ncc2c([nH]c3ccccc32)c1=O,,inconclusive: 38.8% [activator]
OCC1CCCN(C(=S)NCCc2ccccc2)C1 (configuration not stated),"inconclusive: 14.6 µM [activator, partial curve]",
COc1cccc(C(=O)OCC(=O)NCCC2=CCCCC2)c1,"inconclusive: 20.6 µM [activator, partial curve, poor fit]",
COc1ccccc1N1CCN(c2ncnc3sc(C)c(-c4ccccc4)c23)CC1,,inconclusive: 14.7% [activator]
COc1ccccc1OCCCOc1ccc([N+](=O)[O-])cc1Cl,"inconclusive: 10 µM [activator, partial curve, poor fit]",
COc1cnn(-c2ccc(Br)cc2)c(=O)c1SCc1ccccc1,"inconclusive: 20.6 µM [activator, partial curve]",
Cc1nn(C)c(C)c1NS(=O)(=O)c1c(C)n[nH]c1C,"inconclusive: 18.3 µM [activator, partial curve, poor fit]",
CCC1=[N+](CC(=O)c2ccc(Br)cc2)CCn2c(C)ccc21,"inconclusive: 29.1 µM [activator, single point]",
Cc1ccc(CCNC(=O)C2CC(c3ccc(C(F)(F)F)cc3)=NO2)cc1 (configuration not stated),"inconclusive: 20.6 µM [activator, single point]",
O=C1CCc2cc(NS(=O)(=O)c3ccccc3)cc3c2N1CC3,inactive,
Cc1ccc(CNc2nc(-c3cccnc3)nc3ccccc23)cc1,"inconclusive: 23.1 µM [inhibitor, single point]",
COc1ccc(C2=NN(c3ccc(C(=O)O)cc3)C(c3ccc(OC)c(OC)c3)C2)cc1 (configuration not stated),"inconclusive: 20.6 µM [activator, partial curve]",
